No constants are given. Whether binding was seen depends on the method and setting. Binding calls can cover weak binding; strength is not graded here. For part of these data: In cells and extracts the contact can be indirect. One block for each substance: values may come before it.
How the values were obtained:
[1] = target: N_MsmK (amino acids 1 to 234), His-tagged (Streptococcus suis); assay: far-Western, overlay or dot blot; far-Western blot of MsmK and its derivatives incubated with FtsZ; both purified
[2] = target: His-tagged MsmK (multiple sugar metabolism protein K), full length (Streptococcus suis); assay: as above
[3] = target: His-tagged FtsZ (filamentous temperature-sensitive protein Z) (Streptococcus suis); assay: co-sedimentation; FtsZ (6 μM) incubated with increasing amounts of MsmK constructs with 2 mM GTP (1 mM ATP added if needed); high-speed centrifugation; pellets on Coomassie-stained gels; both purified
[4] = target: FtsZ, bacterial two-hybrid fusion (Streptococcus suis); assay: two-hybrid; bacterial two-hybrid; pBT- and pTRG-related plasmids cotransformed into the reporter strain; growth on selective plates with 3-AT and streptomycin
[5] = target: MsmK with a His tag at the C terminus, expressed in S. suis strain CΔmsmK-His (Streptococcus suis); assay: co-IP; exponentially growing S. suis cells cross-linked with 0.1% paraformaldehyde; lysate supernatant on Ni-NTA, 50 mM Tris-HCl pH 7.4, 150 mM NaCl, 25 mM imidazole, 4°C; washed with 80 mM, eluted with 250 mM imidazole; blots with anti-His, anti-MsmK and anti-FtsZ

Amino acid sequences for entries named in this document (tags omitted). A change or cut given only in a name is not applied to a line headed by its entry.
UniProt A0A0H3MXZ7: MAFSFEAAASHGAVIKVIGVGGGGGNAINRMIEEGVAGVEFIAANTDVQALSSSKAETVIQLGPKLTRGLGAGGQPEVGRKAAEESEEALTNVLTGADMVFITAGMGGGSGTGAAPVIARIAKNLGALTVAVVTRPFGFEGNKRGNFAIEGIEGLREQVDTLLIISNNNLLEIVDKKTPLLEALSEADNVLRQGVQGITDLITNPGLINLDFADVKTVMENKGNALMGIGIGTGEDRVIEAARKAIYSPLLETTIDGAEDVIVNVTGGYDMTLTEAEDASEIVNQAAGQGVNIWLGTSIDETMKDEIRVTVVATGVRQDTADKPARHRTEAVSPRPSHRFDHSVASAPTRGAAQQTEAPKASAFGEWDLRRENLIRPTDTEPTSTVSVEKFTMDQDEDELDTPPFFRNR
UniProt A0A0H3N1P0: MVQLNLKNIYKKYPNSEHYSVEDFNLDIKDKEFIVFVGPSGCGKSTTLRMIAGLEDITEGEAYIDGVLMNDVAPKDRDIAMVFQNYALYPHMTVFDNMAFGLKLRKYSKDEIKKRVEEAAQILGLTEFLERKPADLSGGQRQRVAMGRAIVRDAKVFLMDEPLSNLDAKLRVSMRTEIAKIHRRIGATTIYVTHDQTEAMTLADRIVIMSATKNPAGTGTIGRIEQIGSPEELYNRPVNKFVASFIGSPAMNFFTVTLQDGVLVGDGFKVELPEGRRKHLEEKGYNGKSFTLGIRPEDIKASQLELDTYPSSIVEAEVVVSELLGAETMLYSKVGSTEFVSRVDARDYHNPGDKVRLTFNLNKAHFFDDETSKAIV

binding [1]: binds | binding [2]: binds
Substance: His-tagged FtsZ (filamentous temperature-sensitive protein Z) (from UniProt A0A0H3MXZ7 1-409)

binding [3]: binds
Substance: His-tagged MsmK (multiple sugar metabolism protein K), full length (from UniProt A0A0H3N1P0 1-376) (enzyme)

binding [4]: binds
Substance: MsmK, bacterial two-hybrid fusion (pTRG-msmK) (from UniProt A0A0H3N1P0 1-376) (enzyme)

binding [3]: binds
Substance: N_MsmK (amino acids 1 to 234), His-tagged (from UniProt A0A0H3N1P0 1-234) (domain or fragment)

Substance: endogenous FtsZ of S. suis (from UniProt A0A0H3MXZ7 1-409)
binding [5]: binds
